Experimental data reported in patent US7030081B2 (S.I.S.S.A.- Scuola Internazionale Superiore di Studi …, priority 2000, dated 2006).

Chains of the proteins cited; added tags and fusions are not shown. Lines headed by an entry give the natural chain unless they say otherwise; changes in a name come on top.
UniProt P06881: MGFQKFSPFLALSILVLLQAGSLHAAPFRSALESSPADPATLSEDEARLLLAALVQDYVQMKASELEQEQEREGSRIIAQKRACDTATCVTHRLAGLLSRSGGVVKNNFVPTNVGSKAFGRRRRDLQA

System: nAChRs of rat chromaffin cells
Assay: Patch-clamp recording of nicotine-induced currents in cultured rat chromaffin cells
Type: cell-based
Description: Cultures of rat chromaffin cells were prepared according to the Brandt method (Brandt et al., 1976, Giniatullin et al., 1999, Khirough et al., 1997, 1998). 25–35 day old rats were anaesthetized by increasing CO2 levels and then their adrenal glands were removed. The medullary part was separated from the cortical portion of the gland in buffer solution (pH 7.2) containing (mM): NaCl 137, KCl 3, Na2HPO4 0.7, HEPES 25, glucose 10 and 350 U ml^−1 of penicillin and streptomycin. […]
Dishes containing cultured cells (used from 0 to 3 days after their preparation) were placed on an inverted Nikon DIAPHOT™ microscope and continuously superfused (5–10 ml/min) with control saline containing (mM): NaCl 135, KCl 5, MgCl2 1, CaCl2 2, glucose 15, HEPES 10 (pH 7.4 with addition of NaCH; 285 mOsm osmolarity). […] After obtaining whole-cell configuration (Hamill et al. 1981), each cell was stabilized for […] period, after which membrane ionic currents, mediated by nAChR activation, were recorded, filtered at 1 kHz, and stored in a PC for subsequent analysis with the pCLAMP 6.04 program (Axon Instruments Inc., Foster City, Calif.).
nAChR agonists were administered to single cells by a pressure system from a micropipette containing a relatively concentrated solution and placed at […] distance from the recorded cell. […]

CGRP 1-3: CGRP N-terminal fragment 1-3, inactive (ACD; Calcitonin gene-related peptide 1; UniProt P06881 83-85, looked up, fragment)
enhancement of nicotine induced currents (1 μM peptide, nicotine 0.1 mM, 20 ms pulse): 0±1%
action of fragment on nicotinic currents (in words) (FIG. 5B): inactive
